Reference: the supplement of paper PMC7024190
Structures can show the parent of a compound that is named as a salt. The list shows a part of the results. This data set is noisy: repeats of one test often differ as much as different tests do.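 Human embryonic kidney cells were transiently transfected with a plasmid bearing a Renilla luciferase gene under the HSV-TK promoter. This first-round screen tests roughly ten thousand compounds for ones that increase reporter output.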

system: HEK 293FT; experiment: log relative Renilla luciferase luminescence (reporter expression vs reference, reference not stated) (log (base not stated)); higher = higher recombinant reporter expression; settings: 10 µM; time after transfection 48 h

Row | Structure (SMILES) | log
1 | CCCCCCCCCCCC1=C(O)C(=O)C=C(O)C1=O [Embelin] | -0.0903
2 | Cc1sc(N)c(C(=O)c2cccc(C(F)(F)F)c2)c1C | -0.089
3 | O=Nc1c(-c2c(O)[nH]c3ccccc23)[nH]c2ccccc12 [Indirubin-3'-oxime] | 0.12
4 | COc1ccc(NC(=O)c2cc(OCCCN(C)C)nn2Cc2ccccc2)cc1 [CFM 1571 hydrochloride] | -0.545
5 | CC(Cc1ccccc1)(NC(=O)CN)c1ccccc1 (centres undefined) [Remacemide hydrochloride] | 0.217
6 | CCC(=O)NC1Cc2ccccc2C(c2ccccc2)C1 (centres undefined) | -0.0054
7 | COC(=O)C1=C(C)NC(C)=C(C(=O)OCCCN2CCC(c3ccccc3)(c3ccccc3)CC2)[C@H]1c1cccc([N+](=O)[O-])c1 [(S)-(+)-Niguldipine hydrochloride] | 0.06
8 | CNCCC(Oc1ccccc1OC)c1ccccc1 (centres undefined) [Nisoxetine hydrochloride] | 0.0701
9 | CC(=O)N1CCN(C)CC1 [1-Acetyl-4-methylpiperazine hydrochloride] | 0.00213
10 | COC(=O)/C=C/c1cc(O)ccc1O [Methyl 2,5-dihydroxycinnamate] | 0.0544
11 | C[C@H](NC[C@H](O)CP(=O)(O)CC1CCCCC1)c1ccc(Cl)c(Cl)c1 | 0.128
12 | CCCCOC(=O)c1cc2c(cn1)[nH]c1ccccc12 | 0.023
13 | COc1cc([C@@H]2c3cc4c(cc3[C@@H](O[C@@H]3O[C@@H]5CO[C@@H](C)O[C@H]5[C@H](O)[C@H]3O)[C@H]3COC(=O)[C@H]23)OCO4)cc(OC)c1O [Etoposide] | -0.795
14 | Nc1ncnc2c1ncn2C1CCCO1 (centres undefined) | 0.0207
15 | OC(CN1CCC(Cc2ccc(F)cc2)CC1)c1ccc(Cl)cc1 (centres undefined) [Eliprodil] | 0.0783
16 | NS(=O)(=O)c1cc2c(cc1Cl)NC(C1CC3C=CC1C3)NS2(=O)=O (centres undefined) [Cyclothiazide] | -0.0659
17 | CCN(CC)CC1CCCCN1CC(=O)N1c2ccccc2C(=O)Nc2cccnc21 (centres undefined) | 0.035
18 | N=C(N)S/C=C\C(=O)O [ZAPA sulphate] | -0.168
19 | N[C@H]1CCN(O)C1=O | -0.178
20 | C[C@@H](CN1CCC(n2c(=O)[nH]c3cc(Cl)ccc32)CC1)NC(=O)c1ccc2ccccc2c1 | 0.00532

In the list so far, these have a carbonyl joined to an NH by a bond outside any ring.
Row | Structure (SMILES) | log
4 | COc1ccc(NC(=O)c2cc(OCCCN(C)C)nn2Cc2ccccc2)cc1 [CFM 1571 hydrochloride] | -0.545
5 | CC(Cc1ccccc1)(NC(=O)CN)c1ccccc1 (centres undefined) [Remacemide hydrochloride] | 0.217
6 | CCC(=O)NC1Cc2ccccc2C(c2ccccc2)C1 (centres undefined) | -0.0054
20 | C[C@@H](CN1CCC(n2c(=O)[nH]c3cc(Cl)ccc32)CC1)NC(=O)c1ccc2ccccc2c1 | 0.00532

Additional results follow.

Row | Structure (SMILES) | log
21 | NC(=O)OCC(COC(N)=O)c1ccccc1 [Felbamate] | 0.553
22 | CN(C)CCCC1(c2ccc(F)cc2)OCc2cc(C#N)ccc21 (centres undefined) [Citalopram hydrobromide] | 0.024
23 | COC(=O)[C@H]1[C@H]2C[C@H]3c4[nH]c5ccccc5c4CCN3C[C@H]2CC[C@@H]1O [Rauwolscine hydrochloride] | -0.16
24 | NS(=O)(=O)c1nn2cc(-c3ccccc3)nc2s1 | -0.0275
25 | COc1cc2c(cc1OC)-c1c/c(=N\c3c(C)cc(C)cc3C)n(C)c(=O)n1CC2 [Trequinsin hydrochloride] | -0.0418
26 | OC(CNCC(O)C1CCc2cc(F)ccc2O1)C1CCc2cc(F)ccc2O1 (centres undefined) [Nebivolol hydrochloride] | -0.041
27 | CC(C)CC(NC(=O)OCC1c2ccccc2-c2ccccc21)C(=O)O (centres undefined) | 0.0889
28 | CC1(C)Oc2ccc(C#N)cc2[C@@H](N2CCCC2=O)[C@@H]1O [Levcromakalim] | 0.0783
29 | COc1cc(N)c(Cl)cc1C(=O)NC1CCN(CCCOc2ccc(F)cc2)CC1OC (centres undefined) [Cisapride] | 0.102
30 | N#Cc1c(O)c2c(-c3ccc(-c4ccccc4O)cc3)csc2[nH]c1=O | -0.0488
31 | O=C(O)CCC/C=C\C[C@@H]1CO[C@H](C(F)(F)F)O[C@@H]1c1ccccc1O | 0.137
32 | Nc1nc2ccc(Cl)cc2c2nc(-c3ccco3)nn12 | 0.113
33 | CCN(CC)CCCCN1c2ccccc2Oc2ccc(Cl)cc21 [10-DEBC hydrochloride] | -0.0188
34 | C/C(=N\NC(=O)C1C(=O)NCC1c1ccccc1)c1cccc(Br)c1 (centres undefined) | -0.84
35 | CS(=O)(=O)Nc1c(O)ccc2c1CCCC2C1=NCCN1 (centres undefined) | -0.0572
36 | OCc1cc(C(O)CNCCCCCCOCCCCc2ccccc2)ccc1O (centres undefined) [Salmeterol] | 0.158
37 | N[C@@H](CSS(=O)(=O)O)C(=O)O [S-Sulfo-L-cysteine sodium salt] | -0.0903
38 | CSc1nc(NC2CCCC2)c([N+](=O)[O-])c(NC2CCCC2)n1 | -0.0175
39 | COc1cc(C(=O)OCCCN2CCCN(CCCOC(=O)c3cc(OC)c(OC)c(OC)c3)CC2)cc(OC)c1OC [Dilazep dihydrochloride] | 0.144
